The assay concerns L1210 leukemia ip in BDF1 mice, survival T/C. In words: NCI In Vivo Anticancer Drug Screen. Data for tumor model L1210 Leukemia (intraperitoneal) in B6D2F1 (BDF1) mice. The settings on record: T/C endpoint: mean survival time, higher T/C = longer survival.
Where [1] appears, read: dose: 100.0 mg/kg/injection, schedule: Q04DX003 (ip), vehicle: Klucel (hydroxypropylcellulose) (HPC).
Setting [2] is: dose: 200.0 mg/kg/injection, schedule: Q04DX003 (ip), vehicle: Klucel (hydroxypropylcellulose) (HPC).
Setting [3] is: dose: 400.0 mg/kg/injection, schedule: Q04DX003 (ip), vehicle: Klucel (hydroxypropylcellulose) (HPC).
Where [4] appears, read: dose: 400.0 mg/kg/injection, schedule: Q04DX003 (ip), vehicle: saline.

Molecules are shown by their SMILES. The list is a part of this screen's results and no random one: it is rich in T/C values a quarter to a half above the control, in often repeated tests (any T/C) and in doses without a T/C. Other doses and runs of a compound stand elsewhere. T/C gives the treated animals as a percentage of the vehicle group. Some doses have a count of surviving animals in place of a T/C: the source files T/C as zero there, which appears to mark a toxic dose or a test without result, not a measured value. Some survivor counts are full or nearly so, which does not show that the dose was tolerated: survival well below the control is almost never listed, so the zero probably covers shortened survival too. Survivors were counted at the toxicity check, usually on the fifth day, unless a day is given; later deaths do not show. Schedule codes are those of the source, read here as Q, the interval in days (D) or hours (H), X, the number of doses. Some entries hold several experiments; the values are given in rising order. For survival time, this PubChem deposit counts one and a half times the control or more as active, and values a quarter to a half above the control carry no call in these data; other NCI protocols may use other cut-offs. Some T/C values are followed by the survivors on the day toxicity was checked, most often the fifth; where none is given, no animal had died by that day.

Our source for the T/C and survivor count values is PubChem BioAssay AID248 (DTP/NCI, 2004).

Take `Cc1cc(N(CCOS(C)(=O)=O)CCOS(C)(=O)=O)ccc1C=Nc1ccc(C(=O)O)cc1`: the T/C (dose: 10.0 mg/kg/injection, schedule: Q04DX003 (ip), vehicle: Klucel (hydroxypropylcellulose) (HPC)) was 129 % of control. Also, the survivor count is, setting by setting: (dose: 80.0 mg/kg/injection, schedule: Q04DX003 (ip), vehicle: Klucel (hydroxypropylcellulose) (HPC)) 6 of 6; under setting [1], 5 of 6; under setting [2], 5 of 6; under setting [3], 2 of 6.
As for `COc1cccc2c1C(=O)c1c(O)c3c(c(O)c1C2=O)C[C@@](O)(C(=O)COC(=O)Cc1ccccc1)C[C@@H]3OC1CC(N)C(O)C(C)O1` (stereo partly drawn), the T/C by setting is: (dose: 0.57 mg/kg/injection, schedule: Q01DX009 (ip), vehicle: saline with Tween-80) 131 % of control; (dose: 0.85 mg/kg/injection, schedule: Q01DX009 (ip), vehicle: saline with Tween-80) 140 % of control; (dose: 4.4 mg/kg/injection, schedule: Q01DX009 (ip), vehicle: saline with Tween-80) 144 % of control.
Regarding `Nc1ccc(CCCCOc2ccccc2)cc1`, the survivor count (dose: 200.0 mg/kg/injection, schedule: Q01DX001 (ip), vehicle: saline with Tween-80) is reported as 2 of 6 and the survivor count (dose: 400.0 mg/kg/injection, schedule: Q01DX001 (ip), vehicle: saline with Tween-80) was 1 of 6.
Take `CCCN(CCC)N=Nc1c(C(=O)OC)n[nH]c1C`: the T/C (dose: 265.0 mg/kg/injection, schedule: Q01DX009 (ip), vehicle: saline) was 131 % of control. Further, where the note is “dose: 600.0 mg/kg/injection, schedule: Q01DX009 (ip), vehicle: saline”, the survivor count is 3 of 6.
Regarding `CCCCCCCCCCCCCCCCCC[n+]1ccc(C(=O)c2ccccc2)cc1`, the survivor count reads like this: (dose: 75.0 mg/kg/injection, schedule: Q01DX001 (ip), vehicle: other) 5 of 6; (dose: 150.0 mg/kg/injection, schedule: Q01DX001 (ip), vehicle: other) 1 of 6; (dose: 300.0 mg/kg/injection, schedule: Q01DX001 (ip), vehicle: other) 0 of 6.
Consider `COc1ccc(NC(=O)Oc2ccccc2C(N)=O)c(Cl)c1`, for which the survivor count (dose: 400.0 mg/kg/injection, schedule: Q04DX002 (ip), vehicle: Klucel (hydroxypropylcellulose) (HPC)) is on record as 3 of 3.
As for `CC(=O)C1C=NCC(C)(C)N=CC(C(C)=O)C(C)=NCCCN=C1C.[Ni]` (stereo not drawn), the survivor count is reported as 2 of 6 under setting [1], 1 of 6 under setting [2] and 0 of 6 under setting [3].
For `Cc1ccc(OCc2c(COc3ccc(Cl)cc3)sc3ccc(Cl)cc23)cc1`, the survivor count (dose: 100.0 mg/kg/injection, schedule: Q04DX003 (ip), vehicle: saline with Tween-80) is given as 6 of 6.
Regarding `CC(C)=CCNC1=NCCN1`, the survivor count by setting is: (dose: 100.0 mg/kg/injection, schedule: Q01DX009 (ip), vehicle: saline with Tween-80) 1 of 6; (dose: 200.0 mg/kg/injection, schedule: Q01DX009 (ip), vehicle: saline with Tween-80) 0 of 6; (dose: 400.0 mg/kg/injection, schedule: Q01DX009 (ip), vehicle: saline with Tween-80) 0 of 6.
`CC[P+](CC)(CC)CCCCI`: the survivor count runs as follows: (dose: 100.0 mg/kg/injection, schedule: Q01DX009 (ip), vehicle: saline) 0 of 6; (dose: 100.0 mg/kg/injection, schedule: Q04DX003 (ip), vehicle: saline) 1 of 6 and 3 of 6; (dose: 200.0 mg/kg/injection, schedule: Q01DX009 (ip), vehicle: saline) 0 of 6; (dose: 200.0 mg/kg/injection, schedule: Q04DX003 (ip), vehicle: saline) 0 of 6; under setting [4], 0 of 6.
Regarding `[CH3][Pb]([CH3])([CH3])[O]C(=O)CCl`, the survivor count (dose: 3.13 mg/kg/injection, schedule: Q01DX009 (ip), vehicle: saline with Tween-80) is reported as 6 of 6; the survivor count (dose: 6.25 mg/kg/injection, schedule: Q01DX009 (ip), vehicle: saline with Tween-80) is listed as 1 of 6; the survivor count (dose: 25.0 mg/kg/injection, schedule: Q04DX002 (ip), vehicle: saline with Tween-80) is 0 of 3; the survivor count (dose: 50.0 mg/kg/injection, schedule: Q04DX002 (ip), vehicle: saline with Tween-80) is reported as 0 of 3; the survivor count (dose: 100.0 mg/kg/injection, schedule: Q04DX002 (ip), vehicle: saline with Tween-80) was 0 of 3; the survivor count (dose: 200.0 mg/kg/injection, schedule: Q04DX002 (ip), vehicle: saline with Tween-80) is reported as 0 of 3. Besides, for the setting “dose: 400.0 mg/kg/injection, schedule: Q04DX002 (ip), vehicle: saline with Tween-80”, the survivor count is reported as 0 of 3.
As for `CCOC(OCC)C(=O)C(C#N)c1ccc(Cl)c(Cl)c1` (stereo not drawn), the survivor count was 0 of 6 (dose: 100.0 mg/kg/injection, schedule: Q01DX001 (ip), vehicle: saline); 0 of 6 (dose: 200.0 mg/kg/injection, schedule: Q01DX001 (ip), vehicle: saline); 0 of 6 (dose: 400.0 mg/kg/injection, schedule: Q01DX001 (ip), vehicle: saline).
For `CNCC(SC)c1ccc(O)c(O)c1` (stereo not drawn), under setting [4], the survivor count is reported as 3 of 6.
As to `CCOP(=S)(S)OCC`, the survivor count under setting [4] is 1 of 6.
Regarding `CCOC(=O)NC(C)(C)Cc1ccccc1`, the survivor count (dose: 200.0 mg/kg/injection, schedule: Q04DX003 (ip), vehicle: saline with Tween-80) was 6 of 6 and the survivor count (dose: 400.0 mg/kg/injection, schedule: Q04DX003 (ip), vehicle: saline with Tween-80) is on record as 1 of 6.
In the case of `NC(=S)Nc1cccc(Cl)c1`, the survivor count runs as follows: (dose: 50.0 mg/kg/injection, schedule: Q01DX009 (ip), vehicle: other) 3 of 6; (dose: 100.0 mg/kg/injection, schedule: Q01DX009 (ip), vehicle: other) 0 of 6; under setting [1], 6 of 6; (dose: 200.0 mg/kg/injection, schedule: Q01DX009 (ip), vehicle: other) 0 of 6; under setting [2], 2 of 6; under setting [3], 0 of 6.
As for `O=C(Nc1ccc(Cl)cc1)Oc1ccc(Cl)cc1Cl`, the survivor count by setting is: (dose: 12.5 mg/kg/injection, schedule: Q01DX009 (ip), vehicle: DMSO) 5 of 6; (dose: 50.0 mg/kg/injection, schedule: Q01DX009 (ip), vehicle: DMSO) 2 of 3; (dose: 100.0 mg/kg/injection, schedule: Q01DX009 (ip), vehicle: DMSO) 1 of 3; (dose: 100.0 mg/kg/injection, schedule: Q04DX002 (ip), vehicle: DMSO) 3 of 3; (dose: 200.0 mg/kg/injection, schedule: Q01DX009 (ip), vehicle: DMSO) 0 of 3; (dose: 400.0 mg/kg/injection, schedule: Q04DX002 (ip), vehicle: DMSO) 0 of 3.
As for `CC[C@@]1(O)C(=O)OCc2c1cc1n(c2=O)Cc2cc3c(OC)cccc3nc2-1`, the T/C (dose: 1.0 mg/kg/injection, schedule: Q04DX003 (ip), vehicle: saline with Tween-80) is 134 % of control; the T/C (dose: 2.0 mg/kg/injection, schedule: Q01DX009 (ip), vehicle: carboxymethylcellulose (CMC)) is 129 % of control [5 of 6 alive]; the T/C (dose: 2.0 mg/kg/injection, schedule: Q01DX009 (ip), vehicle: saline with Tween-80) is 136 % of control; the T/C (dose: 2.0 mg/kg/injection, schedule: Q04DX003 (ip), vehicle: saline with Tween-80) is 139 % of control.
